Reference: patent US7169414B2, “Antimicrobial agents isolated from aloe vera” (priority 1998, dated 2007)
At least one compound was matched to its structure with a doubt left.

Test system: bacterial growth
Experiment: culture killing assays of known Aloe components
Assay type: cell-based
Settings: purified extracts of known Aloe components
Protocol: Previously isolated and identified individual aloe products as antimicrobial products were studied to confirm that these compounds were not responsible for the anti-bacterial activity identified herein. Purified extracts of several known Aloe components were provided by Dr. I. Danhoff, including: Albarin, Awbarin, Anthraquinone, Aloin A, Aloin A & B, Aloe emodin, and Yellow sap components were tested in like assays.

## O=C1c2cccc(O)c2C(=O)c2c(O)cc(CO)cc21 [Aloe emodin]
  inhibition of bacterial growth: showed any inhibition of bacterial growth
